Test results: PMC6925144, “A prospective compound screening contest identified broader inhibitors for Sirtuin 1” (Scientific Reports, 2019)
In all, about 3,200 compounds were measured (“TSA(with NAD+) / Primary screening (TSA) / delta Tm (K)”: median about -0.04, highest 2% from about 0.37 on). The list shows a part of the results.

The chains behind the UniProt entries cited, without tags or fusion partners. Residues count along the entry.
UniProt Q96EB6, 2-747 limits assumed: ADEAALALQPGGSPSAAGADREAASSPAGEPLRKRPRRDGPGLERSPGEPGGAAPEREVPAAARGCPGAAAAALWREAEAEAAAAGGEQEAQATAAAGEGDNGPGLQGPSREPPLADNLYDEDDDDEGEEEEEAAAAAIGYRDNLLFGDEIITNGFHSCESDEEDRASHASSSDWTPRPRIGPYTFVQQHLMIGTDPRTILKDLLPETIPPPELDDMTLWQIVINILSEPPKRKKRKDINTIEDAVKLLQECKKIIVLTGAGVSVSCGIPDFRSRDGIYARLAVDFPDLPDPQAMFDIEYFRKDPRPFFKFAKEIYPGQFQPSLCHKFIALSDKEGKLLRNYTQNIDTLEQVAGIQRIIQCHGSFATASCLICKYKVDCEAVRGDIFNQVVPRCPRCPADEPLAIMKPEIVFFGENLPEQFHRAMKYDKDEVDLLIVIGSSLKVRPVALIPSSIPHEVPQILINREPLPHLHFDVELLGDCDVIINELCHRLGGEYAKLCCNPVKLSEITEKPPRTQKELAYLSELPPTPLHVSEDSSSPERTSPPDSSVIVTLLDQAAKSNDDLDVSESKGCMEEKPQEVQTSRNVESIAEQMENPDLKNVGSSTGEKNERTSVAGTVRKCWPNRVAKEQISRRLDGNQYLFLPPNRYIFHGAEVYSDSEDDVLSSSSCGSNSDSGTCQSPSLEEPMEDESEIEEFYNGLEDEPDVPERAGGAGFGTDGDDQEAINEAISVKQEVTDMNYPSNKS

biological target: NAD-dependent deacetylase Sirtuin 1 (human, UniProt Q96EB6); test: primary screen, delta tm; set-up: single well (n = 1, as 'the same TSA'); settings: 10 µM

SMILES	TSA(with NAD+) / Primary screening (TSA) / delta Tm (K)
O=C(O)[C@@H]1C[C@H]1C(=O)O	-0.12
CC(C)c1noc2ncc(C(=O)Nc3cc(C(N)=O)ccc3N3CCCC3)cc12	-0.03
O=c1oc2ccc3ccccc3c2cc1-c1nc2ccccc2[nH]1	-0.04
CC(C(=O)NC(c1ccccc1)C1CC1)n1cnc2ccccc21 (stereo not drawn)	0.05
O=C(Oc1ccc2oc3ccccc3c2c1)C1CC1	-0.32
O=C(CCl)c1c(-c2ccccc2)[nH]c2ccccc12	-0.03
COC(=O)c1cc(Br)ccc1NC(=O)c1cccc(S(=O)(=O)N(C)c2ccc(C)cc2)c1	-0.04
COc1cccc(-c2nc(CSc3nnc(CN4CCCCC4)n3-c3ccc(F)cc3)cs2)c1	-0.04
COc1cccc(C(=O)C2=C(O)C(=O)N(CCCN3CCOCC3)C2c2ccccc2)c1 (stereo not drawn)	-0.04
CC(=O)N(c1nn(CN2CCN(c3ccc(C(N)=O)cn3)CC2)c(=S)s1)C1CC1	-0.33
Cc1ccc(-c2cc(C(=O)Nc3ccc(C(N)=O)cc3)c3ccccc3n2)c(C)c1	-0.06
O=C1CCc2c(OCc3cc(=O)n4ccccc4n3)cccc21	-0.22
COc1cc(CNc2ccc3nnnn3n2)cc(OC)c1OC	-0.03
CC(C#N)(NC(=O)CNc1cccnc1-c1ccccc1)C1CC1 (stereo not drawn)	-0.08
O=C1CC(N2CCN(c3cnccn3)CC2)C(=O)N1CCc1ccccc1 (stereo not drawn)	0.06
COc1ccc(C(=O)NC2CCCC2(C)CO)cc1-c1ccccn1 (stereo not drawn)	-0.23
Cc1cc(C(=O)COC(=O)C23CC4CC(CC(O)(C4)C2)C3)c(C)n1-c1c(C)n(C)n(-c2ccccc2)c1=O	-0.23
CCc1cc2c(N3CCCN(CC(N)=O)CC3)ncnc2s1	-0.02
Cc1ccc(CN(C(=O)NCc2ccco2)C2CCc3ccccc32)cc1 (stereo not drawn)	-0.13
O=C(O)C1CC(=O)N(c2ccc(S(=O)(=O)Nc3ccc4c(c3)CCC4)cc2)C1 (stereo not drawn)	-0.03

SMILES	TSA(with NAD+) / Primary screening (TSA) / delta Tm (K)
Cc1ccccc1CSc1nc2ccsc2c(=O)n1C	-0.13
CCC(NC)C(=O)O (stereo not drawn)	-0.11
Cc1ccc(-c2sc(-c3ccccc3)nc2CC(=O)NNC(=O)C2COc3ccccc3O2)cc1 (stereo not drawn)	0.27
O=C(CCc1nc2ccccc2o1)Nc1ccc(N2CCN(Cc3ccccc3)CC2)cc1	-0.11
CCC(CC)NCCN	-0.09
Cc1noc(C)c1C(=O)OCC(=O)Nc1ccc(C(N)=O)cc1	-0.01
CN(C)C(CNC(=O)c1ccc2c(c1)OCC(=O)N2)c1ccco1 (stereo not drawn)	0.15
COC(=O)c1ccc2[nH]c(CN)nc2c1	-0.05
CSc1ccc(NC(=O)C2CC(=O)Nc3cc(F)ccc32)cc1 (stereo not drawn)	-0.16
COCC(N)CO (stereo not drawn)	-0.09
Cc1ccccc1C(=O)N1CCC(C(=O)NCCc2nc3ccccc3[nH]2)CC1	-0.01
COc1ccccc1NC(=O)COc1ccc(C(=O)OCC(=O)NCCC2=CCCCC2)cc1OC	-0.01
O=C(Cn1cnc2sccc2c1=O)c1ccc2c(c1)Cc1ccccc1-2	0.05
Cc1c(CC(=O)O)c(=O)[nH]c2c1c(=O)[nH]n2C	-0.34
O=C1/C(=C/c2cccc(O)c2)Oc2cc(O)ccc21	-0.14
CCN(CC(=O)Nc1cc(C(N)=O)cc(C(N)=O)c1)Cc1cccc(F)c1	0.07
COc1cccc(C(=O)C2=C(O)C(=O)N(CCCN3CCOCC3)C2c2cccnc2)c1 (stereo not drawn)	-0.01
CC(C)c1cc(=O)oc2cc(OCc3ccc(C(N)=O)cc3)ccc12	0.03
CN(C)c1c(Cl)cccc1NC(=O)c1ccc(Cl)nc1Cl	-0.04
CC(OC(=O)COc1ccc2c(c1)CCC2)C(=O)Nc1ccc(C(N)=O)cc1 (stereo not drawn)	-0.12

Gathered by group: the compounds so far containing an aryl thioether with sulfur outside any ring (three)
SMILES	TSA(with NAD+) / Primary screening (TSA) / delta Tm (K)
COc1cccc(-c2nc(CSc3nnc(CN4CCCCC4)n3-c3ccc(F)cc3)cs2)c1	-0.04
Cc1ccccc1CSc1nc2ccsc2c(=O)n1C	-0.13
CSc1ccc(NC(=O)C2CC(=O)Nc3cc(F)ccc32)cc1 (stereo not drawn)	-0.16

Remaining list, next part

SMILES	TSA(with NAD+) / Primary screening (TSA) / delta Tm (K)
CN(Cc1ccc(O)cc1)C(=O)C1c2ccccc2Oc2ccccc21	-0.18
O=C(O)c1ccc(OCc2cccs2)cc1	0.01
c1nc(N2CCSCC2)c2[nH]cnc2n1	-0.03
CN(C)CCCOC1CCN(c2ncnc3ccc(S(C)(=O)=O)cc23)CC1	-0.05
COC(=O)NC(CC(C)C)C(=O)N(C)Cc1nc2ccccc2[nH]1 (stereo not drawn)	-0.11
Cn1ccc(NC(=O)C2CC(=O)N(c3ccc4c(c3)OCO4)C2)n1 (stereo not drawn)	-0.13
COc1ccc(CN2C(=O)/C(=C/NNC(=O)CC34CC5CC(CC(C5)C3)C4)c3ccccc3C2=O)cc1	0.06
O=C(Cc1ccc(-c2ccccc2)cc1)Nc1cccc(S(=O)(=O)N2CCOCC2)c1	0.11
N#Cc1c(NC(=O)c2cnc3ccccc3n2)sc2c1CCCCC2	-0.11
Cc1ccc(N(C)S(=O)(=O)c2cccc(C(=O)OCc3nnsc3Cl)c2)cc1	-0.21
COC1CCCC1NC(=O)Cc1sc(S)nc1C (stereo not drawn)	-0.26
Cc1nc(/C=C/C(=O)NC(C)C(=O)NCc2ccco2)cs1 (stereo not drawn)	-0.06
CC(N)C(N)=O (stereo not drawn)	-0.19
CCN(C(=O)CSc1nc(N)nc(N)n1)C1=CCCC1	0.15
CC(c1ccc(-n2cnc3ccccc32)cc1)N(C)C(=S)Nc1ccccc1 (stereo not drawn)	0.01
CC(OC(=O)C1=C(Nc2ccccc2)OCC1=O)c1ccccc1Cl (stereo not drawn)	-0.08
CON(C)C(=O)Cn1c2ccccc2c(=O)c2ccccc21	0.09
CCCOc1cccc(C2C(C(=O)/C=C/c3ccco3)=C(O)C(=O)N2CCCN2CCOCC2)c1 (stereo not drawn)	0.06
CCOC(=O)c1sc2nc(C)nc(N3CCN(S(=O)(=O)c4cccs4)CC3)c2c1C	0.05
Cc1ccc(N(C)S(=O)(=O)c2cccc(C(=O)OCc3ccc(C(C)(C)C)cc3)c2)cc1	0.16
